Test results reported in PMC2853515.
No constants are given. Whether binding was seen depends on the method and setting. Some entries that bind do so weakly or less than the wild type. Each block holds one molecule with its values, some of them ahead of it.

Chains of the proteins cited; added tags and fusions are not shown. Residues count along the entry.
UniProt Q13751, residues 18-1172: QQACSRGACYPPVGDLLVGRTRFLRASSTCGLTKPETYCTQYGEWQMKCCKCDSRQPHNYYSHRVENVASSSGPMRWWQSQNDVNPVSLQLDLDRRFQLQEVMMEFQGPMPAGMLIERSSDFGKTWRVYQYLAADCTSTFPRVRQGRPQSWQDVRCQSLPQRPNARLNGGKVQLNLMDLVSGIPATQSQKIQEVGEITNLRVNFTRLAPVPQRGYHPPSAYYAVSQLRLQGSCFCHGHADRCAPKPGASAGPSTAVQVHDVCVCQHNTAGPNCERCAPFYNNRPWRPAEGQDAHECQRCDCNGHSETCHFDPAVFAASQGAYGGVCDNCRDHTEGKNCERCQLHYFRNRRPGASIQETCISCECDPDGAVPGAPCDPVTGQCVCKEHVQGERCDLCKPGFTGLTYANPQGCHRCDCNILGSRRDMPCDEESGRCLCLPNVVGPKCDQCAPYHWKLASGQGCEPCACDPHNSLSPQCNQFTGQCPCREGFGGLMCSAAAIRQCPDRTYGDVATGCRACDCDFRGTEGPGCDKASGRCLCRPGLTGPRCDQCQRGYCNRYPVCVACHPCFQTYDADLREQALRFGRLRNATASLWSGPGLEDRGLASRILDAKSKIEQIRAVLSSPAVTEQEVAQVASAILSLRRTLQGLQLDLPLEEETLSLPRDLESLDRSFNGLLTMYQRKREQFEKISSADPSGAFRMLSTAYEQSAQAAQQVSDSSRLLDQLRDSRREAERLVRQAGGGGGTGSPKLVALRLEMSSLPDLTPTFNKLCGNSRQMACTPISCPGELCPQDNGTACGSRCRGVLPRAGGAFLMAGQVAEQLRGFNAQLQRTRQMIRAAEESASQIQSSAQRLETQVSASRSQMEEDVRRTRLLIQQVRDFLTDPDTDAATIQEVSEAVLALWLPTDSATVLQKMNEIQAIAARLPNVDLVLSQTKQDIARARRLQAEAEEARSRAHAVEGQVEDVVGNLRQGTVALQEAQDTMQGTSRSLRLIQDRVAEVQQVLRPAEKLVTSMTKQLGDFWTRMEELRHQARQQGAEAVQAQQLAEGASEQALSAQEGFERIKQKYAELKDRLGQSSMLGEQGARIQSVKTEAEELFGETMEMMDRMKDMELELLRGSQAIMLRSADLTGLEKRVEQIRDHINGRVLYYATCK

Key:
[1] = target: T1, laminin-γ2 chain (human (endogenous in SW620 and LT97)) (UniProt Q13753); test: Western blot under reducing conditions with laminin chain-specific antibodies; conditioned media of LT97 adenoma cells treated with TGFβ and TNFα; data not shown
T1 sequence: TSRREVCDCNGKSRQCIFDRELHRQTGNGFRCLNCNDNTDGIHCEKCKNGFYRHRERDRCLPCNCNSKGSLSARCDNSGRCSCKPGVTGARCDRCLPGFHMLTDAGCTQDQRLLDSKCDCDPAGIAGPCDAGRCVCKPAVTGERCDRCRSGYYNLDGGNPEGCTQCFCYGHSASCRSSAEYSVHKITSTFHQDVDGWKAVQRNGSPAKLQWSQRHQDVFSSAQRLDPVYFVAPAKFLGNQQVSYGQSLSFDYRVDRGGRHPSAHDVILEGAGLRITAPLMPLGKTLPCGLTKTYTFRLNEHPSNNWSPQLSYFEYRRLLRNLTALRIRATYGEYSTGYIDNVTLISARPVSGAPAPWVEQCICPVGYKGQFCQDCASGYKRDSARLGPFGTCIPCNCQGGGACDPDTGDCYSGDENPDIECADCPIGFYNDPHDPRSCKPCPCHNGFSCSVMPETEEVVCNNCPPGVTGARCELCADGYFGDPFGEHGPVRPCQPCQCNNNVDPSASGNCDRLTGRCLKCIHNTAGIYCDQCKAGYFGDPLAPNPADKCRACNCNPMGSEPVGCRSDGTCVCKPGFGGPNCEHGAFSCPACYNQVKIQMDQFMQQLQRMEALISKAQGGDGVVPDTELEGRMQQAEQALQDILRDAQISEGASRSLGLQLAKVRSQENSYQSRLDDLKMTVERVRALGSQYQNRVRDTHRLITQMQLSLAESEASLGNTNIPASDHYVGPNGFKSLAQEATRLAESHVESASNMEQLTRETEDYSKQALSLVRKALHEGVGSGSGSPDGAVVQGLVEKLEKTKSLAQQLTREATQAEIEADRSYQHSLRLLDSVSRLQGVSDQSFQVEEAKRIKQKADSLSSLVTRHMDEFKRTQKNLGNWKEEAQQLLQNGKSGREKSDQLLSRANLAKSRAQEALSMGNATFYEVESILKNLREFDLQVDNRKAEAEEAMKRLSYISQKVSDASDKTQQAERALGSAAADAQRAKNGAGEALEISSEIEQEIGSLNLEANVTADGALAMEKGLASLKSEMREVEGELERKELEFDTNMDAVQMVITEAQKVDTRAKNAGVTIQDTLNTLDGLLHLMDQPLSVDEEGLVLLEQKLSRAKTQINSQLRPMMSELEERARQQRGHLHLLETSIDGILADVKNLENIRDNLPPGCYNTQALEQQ

[2] = target: T1, laminin-γ2 chain (human (endogenous in SW620 and LT97)); test: SDS-PAGE under non-reducing conditions with Western blot; proteins from conditioned media of SW620 cells treated with TGFβ and TNFα for 48 h; 8% polyacrylamide gel without dithiothreitol; probed with laminin-γ2-specific antibody 2140 (same pattern with MAB 19562)

binding [1]: binds
Molecule: laminin-β3 chain (from UniProt Q13751 18-1172)

binding [2]: no binding
B1: laminin-γ2 chain (protein, UniProt Q13753 22-1193)
chain: T1 sequence
